In the supplement of paper PMC6078165:
The reference is the same well before dosing, and untreated signal decays as well.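 Fibroblast labels name human fibroblasts: mostly primary ones from tissues such as uterus (C12385, HUF), lung (H6013), bone (Hs27A), adrenal (HADF) and skin (WS1), plus mammary HMF and breast cancer-associated Hs343T. The cancer cells are basal-like or mesenchymal-like triple-negative breast cancer lines. The paper calls a changed response a hit when it shifts by more than 3x the replicate standard deviation. The tissue of the other fibroblasts is not given here.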

Tested on: HCC1143
Test: relative JC-1 red fluorescence (viability) vs pre-drug, coculture with fibroblast (fraction); higher = more viable cancer cells
Experimental: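 JC-1 labelled TNBC cells cocultured 1:1 (1,500 cells each) with CellTrace Violet stained primary or stromal fibroblasts in 384-well plates in FluoroBrite medium, treated with one of 42 anticancer drugs at 0.1, 1, 10 or 100 uM. JC-1 red fluorescence (mitochondrial integrity in cancer cells only) was read by plate reader every 8 h for 72 h. Values are normalised to each well's pre-drug value. The stock of one drug was tenfold lower, so its dose labels may be too high.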

CC(C)(C#N)c1cc(Cn2cncn2)cc(C(C)(C)C#N)c1 [Anastrozole]
relative JC-1 red fluorescence
Conditions	8 h	16 h	24 h	32 h	40 h	48 h	56 h	64 h	72 h
10 µM, coculture fibroblast: C12385	0.86	0.7653	0.6995	0.637	0.573	0.534	0.489	0.445	0.417
10 µM, coculture fibroblast: H6013	0.8172	0.7466	0.7119	0.692	0.634	0.63	0.595	0.579	0.536
10 µM, coculture fibroblast: H6019	0.7985	0.7104	0.6567	0.5918	0.5413	0.505	0.454	0.414	0.38
10 µM, coculture fibroblast: H6076	0.795	0.829	0.764	0.687	0.663	0.632	0.605	0.576	0.576
10 µM, coculture fibroblast: H6231	0.805	0.884	0.772	0.584	0.651	0.597	0.557	0.514	0.486
10 µM, coculture fibroblast: HADF	0.754	0.661	0.639	0.652	0.555	0.533	0.502	0.478	0.478
10 µM, coculture fibroblast: HCFa	0.828	0.739	0.713	0.682	0.61	0.591	0.549	0.517	0.49
10 µM, coculture fibroblast: HCPF	0.81043	0.813	0.749	0.6409	0.645	0.605	0.558	0.52	0.494
10 µM, coculture fibroblast: HHSteC	0.819	0.741	0.707	0.676	0.593	0.562	0.514	0.486	0.438
10 µM, coculture fibroblast: HMF	0.799	0.913	0.835	0.681	0.715	0.669	0.61	0.562	0.518
10 µM, coculture fibroblast: HPFa	0.93	0.8251	0.779	0.692	0.635	0.603	0.553	0.503	0.47
10 µM, coculture fibroblast: HUF	0.8718	0.761	0.695	0.623	0.575	0.537	0.485	0.449	0.42
10 µM, coculture fibroblast: Hs5	0.83086	0.9099	0.8476	0.7777	0.738	0.6905	0.641	0.613	0.591
10 µM, coculture fibroblast: Hs27A	0.748	0.666	0.64	0.659	0.538	0.515	0.47	0.438	0.429
10 µM, coculture fibroblast: Hs343T	0.8086	0.839	0.771	0.679	0.6604	0.611	0.556	0.532	0.493
10 µM, coculture fibroblast: WS1	0.82099	0.7154	0.6461	0.572	0.5128	0.459	0.412	0.378	0.349
100 µM, coculture fibroblast: C12385	0.8531	0.78	0.711	0.6488	0.5925	0.53181	0.4967	0.455	0.425
100 µM, coculture fibroblast: H6013	0.772	0.723	0.674	0.661	0.5768	0.554	0.52	0.4961	0.4912
100 µM, coculture fibroblast: H6019	0.843	0.761	0.719	0.662	0.633	0.608	0.574	0.531	0.493
100 µM, coculture fibroblast: H6076	0.7997	0.826	0.784	0.7408	0.706	0.697	0.65523	0.6344	0.624
100 µM, coculture fibroblast: H6231	0.8105	0.832	0.7666	0.646	0.6865	0.6585	0.6183	0.581	0.5544
100 µM, coculture fibroblast: HADF	0.74	0.669	0.632	0.64	0.538	0.509	0.474	0.444	0.453
100 µM, coculture fibroblast: HCFa	0.796	0.712	0.68	0.68	0.595	0.57	0.528	0.4941	0.483
100 µM, coculture fibroblast: HCPF	0.803	0.819	0.773	0.673	0.696	0.663	0.621	0.604	0.59
100 µM, coculture fibroblast: HHSteC	0.828	0.781	0.761	0.723	0.64	0.614	0.567	0.527	0.49
100 µM, coculture fibroblast: HMF	0.8051	0.8047	0.764	0.676	0.683	0.658	0.609	0.589	0.565
100 µM, coculture fibroblast: HPFa	0.93	0.857	0.837	0.762	0.698	0.667	0.619	0.584	0.544
100 µM, coculture fibroblast: HUF	0.8872	0.8187	0.777	0.707	0.66	0.634	0.586	0.552	0.522
100 µM, coculture fibroblast: Hs5	0.8338	0.8602	0.8109	0.756	0.7053	0.6767	0.6458	0.6184	0.6075
100 µM, coculture fibroblast: Hs27A	0.72658	0.654	0.60084	0.619	0.4782	0.4508	0.4	0.368	0.379
100 µM, coculture fibroblast: Hs343T	0.816	0.8704	0.811	0.708	0.712	0.673	0.634	0.608	0.5752
100 µM, coculture fibroblast: WS1	0.8472	0.759	0.722	0.654	0.598	0.562	0.514	0.476	0.447
